{"source": "PubChem BioAssay AID1671195 (Yale University, 2021)", "aim": "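Regulators of LDL receptor activity judged by labelled LDL uptake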 (primary screen)", "cell system": "human Huh7 hepatoma cells", "knock-down reagent": "siRNA pool against human genes, 18 nM", "time to read-out": "about 2 to 2.5 days of knockdown, then 8 h LDL uptake", "conditions": "DiI-labelled LDL at 30 µg/ml for 8 h, in lipoprotein-deficient serum medium", "measured": "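Per-cell DiI-LDL intensity by automated imaging; well means scaled to the plate median and given as a robust z-score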", "direction": "robust z-score: higher = more LDL uptake after knockdown", "call rule": "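a gene counts as active if at least two replicate z-scores exceed ±2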", "note": "Here is a random part of about 22,000 reagents. In the full data, about 1,510 (6.9%) were called active. 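Active includes knockdowns raising or lowering LDL uptake; positive z-scores mean more uptake, negative mean less.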 A number with no mark means an inactive call. The numbers tell different reagents against one gene apart."}
{"gene": "LOC399737 (retired record)", "pool no.": 1, "robust z-score, replicate 1": 0.988, "robust z-score, replicate 2": -0.0488, "robust z-score, replicate 3": -0.345}
{"gene": "BMP8A", "pool no.": 1, "robust z-score, replicate 1": 1.17, "robust z-score, replicate 2": 0.531, "robust z-score, replicate 3": 1.05}
{"gene": "BMP8A", "pool no.": 2, "robust z-score, replicate 1": -0.997, "robust z-score, replicate 2": -0.975, "robust z-score, replicate 3": -1.17}
{"gene": "CCDC26", "pool no.": 1, "robust z-score, replicate 1": -0.844, "robust z-score, replicate 2": -1.08, "robust z-score, replicate 3": -0.451}
{"gene": "MLEC", "pool no.": 1, "robust z-score, replicate 1": 1.46, "robust z-score, replicate 2": -0.147, "robust z-score, replicate 3": 0.2}
{"gene": "KLKB1", "pool no.": 1, "robust z-score, replicate 1": 0.395, "robust z-score, replicate 2": 0.624, "robust z-score, replicate 3": 0.435}
{"gene": "CHIAP2", "pool no.": 1, "robust z-score, replicate 1": 1.32, "robust z-score, replicate 2": -0.231, "robust z-score, replicate 3": 0.894}
{"gene": "KLF14", "pool no.": 1, "robust z-score, replicate 1": 0.3, "robust z-score, replicate 2": -0.35, "robust z-score, replicate 3": 0.192}
{"gene": "TMPRSS9", "pool no.": 1, "robust z-score, replicate 1": -0.851, "robust z-score, replicate 2": 0.289, "robust z-score, replicate 3": -1.22}
{"gene": "KLHL1", "pool no.": 1, "robust z-score, replicate 1": 0.92, "robust z-score, replicate 2": 0.128, "robust z-score, replicate 3": 0.245}
{"gene": "LIN9", "pool no.": 1, "robust z-score, replicate 1": 0.148, "robust z-score, replicate 2": -0.106, "robust z-score, replicate 3": -0.202}
{"gene": "KRTAP4-2", "pool no.": 1, "robust z-score, replicate 1": 0.137, "robust z-score, replicate 2": -0.304, "robust z-score, replicate 3": -0.386}
{"gene": "ST8SIA5", "pool no.": 1, "robust z-score, replicate 1": 0.81, "robust z-score, replicate 2": 1.11, "robust z-score, replicate 3": 1.3}
{"gene": "H4C9", "pool no.": 1, "robust z-score, replicate 1": -0.095, "robust z-score, replicate 2": -1.41, "robust z-score, replicate 3": -0.548}

The list goes on; the last 3 above are carried over.
{"gene": "KRTAP4-2", "pool no.": 1, "robust z-score, replicate 1": 0.137, "robust z-score, replicate 2": -0.304, "robust z-score, replicate 3": -0.386}
{"gene": "ST8SIA5", "pool no.": 1, "robust z-score, replicate 1": 0.81, "robust z-score, replicate 2": 1.11, "robust z-score, replicate 3": 1.3}
{"gene": "H4C9", "pool no.": 1, "robust z-score, replicate 1": -0.095, "robust z-score, replicate 2": -1.41, "robust z-score, replicate 3": -0.548}
{"gene": "SELENOK", "pool no.": 1, "robust z-score, replicate 1": -0.256, "robust z-score, replicate 2": -0.253, "robust z-score, replicate 3": -0.186}
{"gene": "YIF1A", "pool no.": 1, "robust z-score, replicate 1": "3.88 (active)", "robust z-score, replicate 2": 2.61, "robust z-score, replicate 3": 3.54}
{"gene": "LOC387931 (retired record)", "pool no.": 1, "robust z-score, replicate 1": -0.524, "robust z-score, replicate 2": -0.314, "robust z-score, replicate 3": -0.649}
{"gene": "THUMPD1", "pool no.": 1, "robust z-score, replicate 1": 0.0703, "robust z-score, replicate 2": -1.04, "robust z-score, replicate 3": 0.964}
{"gene": "ZNF175", "pool no.": 1, "robust z-score, replicate 1": 0.654, "robust z-score, replicate 2": 0.106, "robust z-score, replicate 3": 0.13}
{"gene": "IGF1", "pool no.": 1, "robust z-score, replicate 1": "2.43 (active)", "robust z-score, replicate 2": 1.7, "robust z-score, replicate 3": 2.43}
{"gene": "LOC388887 (retired record)", "pool no.": 1, "robust z-score, replicate 1": -0.991, "robust z-score, replicate 2": -1.29, "robust z-score, replicate 3": -1.38}
{"gene": "SLC6A15", "pool no.": 1, "robust z-score, replicate 1": 0.275, "robust z-score, replicate 2": 0.487, "robust z-score, replicate 3": -0.127}
{"gene": "OVAAL", "pool no.": 1, "robust z-score, replicate 1": 1.54, "robust z-score, replicate 2": 0.674, "robust z-score, replicate 3": 1.12}
{"gene": "SLC8A2", "pool no.": 1, "robust z-score, replicate 1": 0.33, "robust z-score, replicate 2": -0.363, "robust z-score, replicate 3": 0.187}
{"gene": "ANKRD26P1", "pool no.": 1, "robust z-score, replicate 1": -0.541, "robust z-score, replicate 2": -1.45, "robust z-score, replicate 3": -1.37}
{"gene": "ATP1A3", "pool no.": 1, "robust z-score, replicate 1": 0.0529, "robust z-score, replicate 2": 0.23, "robust z-score, replicate 3": -0.0374}
{"gene": "TLCD3B", "pool no.": 1, "robust z-score, replicate 1": 0.433, "robust z-score, replicate 2": 1.26, "robust z-score, replicate 3": 0.794}
{"gene": "ZNF197", "pool no.": 1, "robust z-score, replicate 1": -0.369, "robust z-score, replicate 2": -0.0882, "robust z-score, replicate 3": 0.00783}
{"gene": "RALB", "pool no.": 1, "robust z-score, replicate 1": -0.463, "robust z-score, replicate 2": -0.917, "robust z-score, replicate 3": -0.867}
{"gene": "ZDHHC11", "pool no.": 1, "robust z-score, replicate 1": -0.252, "robust z-score, replicate 2": -0.307, "robust z-score, replicate 3": -0.235}
